Values from PubChem BioAssay AID686943 (Drosophila RNAi Screening Center, 2013)
The screen tested about 23,000 reagents; below is a random part of those that have a named target and a result. 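Extra replicates exist only for a retested subset of genes; insulin dose and duration not given; both raised and lowered dpERK matter.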 Reagents against one gene are numbered here. Names joined by + are all predicted targets of the reagent. Not stated in the record: the amount of reagent, the time to read-out.

- Purpose: 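Search across the genome for regulators of signalling from receptor tyrosine kinase to ERK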 (primary screen)
- Cell system: Drosophila S2R+ haemocyte-like cells expressing YFP-tagged ERK (Rolled)
- Knock-down reagent: long dsRNA against Drosophila genes
- Challenge: insulin stimulation versus unstimulated cells; dose and duration not given
- Measurement: 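Antibody staining for doubly phosphorylated ERK divided by ERK-YFP signal, as plate z-scores, in insulin-treated and untreated cells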
- Scale: replicate 1, z-score of dpERK with insulin and replicate 2, z-score of dpERK with insulin: higher = more active ERK per ERK-YFP after insulin; replicate 1, z-score of dpERK under basal conditions: higher = more basal active ERK per ERK-YFP; replicate 1, z-score of ERK-YFP with insulin: higher = more YFP-tagged ERK signal

gene	dsRNA no.	replicate 1, z-score of dpERK with insulin	replicate 2, z-score of dpERK with insulin	replicate 1, z-score of dpERK under basal conditions	replicate 1, z-score of ERK-YFP with insulin
CG11593	1	0.94	0.69	0.68	-0.38
msb1l	1	0.23	0.96	0.04	0.56
sta	1	-0.47	-1.5	-2.27	-0.67
CG6985	1	-0.32	0.43	-0.07	0.35
CG8180	1	-0.04	-0.48	1.71	0.14
CG8180	2	-0.09	-0.71	-1.82	0.82
CG12106	1	0.63	-0.26	1.57	0.64
dany	1	-0.53	-0.08	-0.39	0.53
14-3-3epsilon	1	-1.32	-2.28	-0.8	0.16
bcd + CR14578	1	-0.24	0.53	-0.46	0.15
CG3216	1	1.52	0.56	0.23	-0.68
Ggamma30A	1	0.34	0.48	0.6	0.43
Ggamma30A	2	-0.06	0.68	1.21	-0.2
Rcd7	1	-0.13	-0.21	-0.6	0
CG32407	1	-0.87	-0.06	0.74	0.29
CG9164	1	-0.19	0.34	-0.01	0.53
CG9164	2	-0.22	0.57	-0.71	0.22
RpS3A	1	-1.25	0.07	-1.73	-4.23
CG32052	1	0.74	0.03	-0.15	0.03
CG9062	1	0.08	0.45	0.01	0.51
CG5191	1	-0.04	-0.16	-0.23	0.29
CG5191	2	0.94	0.29	-0.02	-0.54
CG5191	3	1.25	1.09	1.64	-1.99
CG30196	1	0.22	-0.36	-1.08	-0.2
Apt1	1	0.28	-0.13	0.22	0.26
CG32795	1	1.3	0.21	0.09	0.23
CG32795	2	-0.04	-0.34	-0.72	0.73
CG5151	1	-2.26	-3.35	-2.05	0.43
nompA	1	-0.27	-0.34	-0.55	0.61
CG32845	1	0.21	0.47	0.12	0.13
CG12620	1	0.43	0.38	0.63	0.34
CG13814 (retired record)	1	0.65	-0.48	1.73	-0.22
CG10907	1	0.26	-0.56	-0.12	0.17
Urm1	1	-0.05	0.48	0.21	0.49
kumpel	1	-0.03	0	0.01	0.65
kumpel	2	-0.17	0	-0.43	0.8
kumpel	3	0.3	0	1.23	0.57
kumpel	4	-0.44	-0.43	-1.26	0.1
kumpel	5	0.39	0.17	0.18	0.21
kumpel	6	0.77	0.01	0.48	-0.19

2 of these entries, reformatted:
gene | dsRNA no. | replicate 1, z-score of dpERK with insulin | replicate 2, z-score of dpERK with insulin | replicate 1, z-score of dpERK under basal conditions | replicate 1, z-score of ERK-YFP with insulin
kumpel | 1 | -0.03 | 0 | 0.01 | 0.65
kumpel | 2 | -0.17 | 0 | -0.43 | 0.8
